# Reference: paper PMC5234120, “Age-related macular degeneration associated polymorphism rs10490924 in ARMS2 results in deficiency of a complement activator” (Journal of Neuroinflammation, 2017)
# By UniProt entry, the sequences of proteins in these tests, tags left out. Residues count along the entry.
# UniProt P01024, residues 1002-1303: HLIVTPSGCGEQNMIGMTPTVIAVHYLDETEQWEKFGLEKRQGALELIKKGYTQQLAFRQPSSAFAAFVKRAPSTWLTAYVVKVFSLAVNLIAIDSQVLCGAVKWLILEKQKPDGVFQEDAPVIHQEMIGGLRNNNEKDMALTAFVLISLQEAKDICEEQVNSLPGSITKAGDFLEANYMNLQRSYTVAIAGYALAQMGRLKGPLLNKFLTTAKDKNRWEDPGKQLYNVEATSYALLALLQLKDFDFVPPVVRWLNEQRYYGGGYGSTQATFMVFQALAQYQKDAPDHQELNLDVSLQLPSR
# UniProt P27918, residues 28-469: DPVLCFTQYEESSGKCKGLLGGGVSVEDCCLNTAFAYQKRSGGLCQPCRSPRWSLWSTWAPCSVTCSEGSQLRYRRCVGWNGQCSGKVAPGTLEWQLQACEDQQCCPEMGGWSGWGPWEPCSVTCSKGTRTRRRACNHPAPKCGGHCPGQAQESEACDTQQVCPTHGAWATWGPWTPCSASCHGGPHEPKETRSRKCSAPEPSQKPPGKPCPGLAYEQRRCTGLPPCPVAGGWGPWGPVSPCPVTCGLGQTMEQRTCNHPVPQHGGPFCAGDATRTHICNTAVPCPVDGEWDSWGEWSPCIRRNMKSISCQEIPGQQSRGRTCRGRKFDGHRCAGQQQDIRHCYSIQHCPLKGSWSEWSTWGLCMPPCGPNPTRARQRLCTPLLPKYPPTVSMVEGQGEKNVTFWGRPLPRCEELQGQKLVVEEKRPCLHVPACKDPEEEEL
# Results are given in words; binding and its absence hold for the method and conditions named.
# B1: recombinant ARMS2 (age-related maculopathy susceptibility 2) (natural protein, human, UniProt P0C7Q2 1-107, looked up)
# chain: MLRLYPGPMVTEAEGKGGPEMASLSSSVVPVSFISTLRESVLDPGVGGEGASDKQRSKLSLSHSMIPAAKIHTELCLPAFFSPAGTQRRFQQPQHHLTLSIIHTAAR
# notes: ARMS2, human, codon usage optimized full length cDNA; Glycosylated in P. pastoris (17 and 15 kDa bands); also called His-tagged ARMS2; rARMS2
# Tests used:
# [1] = biological target: T1, ARMS2 peptide 1 (amino acids 1 to 40) (human) (UniProt P0C7Q2); test: ELISA; ARMS2 peptides 1, 2, 3 (each 500 nM) coated on the plate; 2 uM properdin (TECOmedical) in PBS; detected with monoclonal properdin antibody; both purified
# T1 sequence (peptide): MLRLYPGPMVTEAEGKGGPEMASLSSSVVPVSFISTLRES
# [2] = biological target: T2, ARMS2 peptide 2 (amino acids 41 to 70) (human) (UniProt P0C7Q2); test: as above
# T2 sequence (peptide): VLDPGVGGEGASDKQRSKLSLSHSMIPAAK
# C3d = C3d (UniProt P01024); test: ELISA; complement proteins (each 500 ng in PBS) coated on MediSorp plates; 500 ng ARMS2 in 2% BSA, 0.05% Tween-20 in PBS, 1 h RT; ARMS2 detected with ARMS2 antiserum; both purified
Molecule,binding [1],binding [2],binding (C3d)
properdin (from UniProt P27918 28-469),no binding (tested: 2 μM properdin),no binding (tested: 2 μM properdin),–
B1,–,–,no binding (tested: 500 ng ARMS2)
